In PubChem BioAssay AID328 (DTP/NCI, 2004):
The list shows only some results of the screen, not a fair sample: it gathers tests that were run many times, whatever their T/C, doses with no T/C, and many T/C values between a quarter and a half above the control. Further doses and runs are listed elsewhere. T/C is the treated group as % of the vehicle group. Some entries give survivors of the animals treated and no T/C: the source files T/C as zero there, which appears to mark a toxic dose or a test without result, not a measured value. Some doses without a T/C left all or most animals alive at the check, yet need not have been tolerated: the source hardly ever lists a survival T/C far under the control, and the zero likely stands for such cases as well. Counts of survivors are from the toxicity check (mostly the fifth day) where no day follows; animals may have died later. Schedule codes are those of the source, taken here to give the interval after Q, in days (D) or hours (H), and the number of doses after X. For survival time, the PubChem record calls one and a half times the control and up active, and a quarter to a half above the control has no call in these data; cut-offs in other NCI protocols can differ. Some doses were run more than once; their values stand side by side, smallest first. Counts like (3×) count equal records among those shown. Some T/C values are followed by the survivors on the day toxicity was checked, most often the fifth; without a count, all were alive then.

System: BDF1 mice, P388 leukemia ip, median survival T/C
Test: NCI In Vivo Anticancer Drug Screen. Data for tumor model P388 Leukemia (intraperitoneal) in B6D2F1 (BDF1) mice
Details: T/C endpoint: median survival time, higher T/C = longer survival
In short: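 Transplantable tumour in mice; compound vs vehicle dosing; survival scored; ratio of treated to control reported.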

Which results are given for `COc1cccc2c1C(=O)c1c(O)c3c(c(O)c1C2=O)C[C@@](O)(C(=O)CO)C[C@@H]3OC1CC(N)C(O)C(C)O1` (stereo partly specified)?
T/C (dose: 0.2 mg/kg/injection, schedule: Q01DX009 (ip), vehicle: water): 148 % of control; T/C (dose: 0.25 mg/kg/injection, schedule: Q01DX009 (ip), vehicle: water, evaluated on day 28): 170 % of control; T/C (dose: 0.25 mg/kg/injection, schedule: Q01DX009 (ip), vehicle: water, evaluated on day 30): 149 % of control; T/C (dose: 0.25 mg/kg/injection, schedule: Q01DX009 (ip), vehicle: water, evaluated on day 32): 131 and 159 % of control; T/C (dose: 0.25 mg/kg/injection, schedule: Q01DX009 (ip), vehicle: water, evaluated on day 33): 125 % of control; T/C (dose: 0.39 mg/kg/injection, schedule: Q01DX009 (ip), vehicle: saline): 142 % of control; T/C (dose: 0.44 mg/kg/injection, schedule: Q03HX024 (ip), vehicle: saline, evaluated on day 5): 134, 155, 277, 500 % of control; T/C (dose: 0.44 mg/kg/injection, schedule: Q03HX024 (ip), vehicle: saline, evaluated on day 60): 134, 155, 277, 500 % of control; T/C (dose: 0.5 mg/kg/injection, schedule: Q01DX001 (ip), vehicle: saline): 138 % of control; T/C (dose: 0.5 mg/kg/injection, schedule: Q01DX009 (ip), vehicle: water, evaluated on day 28): 166 % of control; T/C (dose: 0.5 mg/kg/injection, schedule: Q01DX009 (ip), vehicle: water, evaluated on day 30): 172 % of control; T/C (dose: 0.5 mg/kg/injection, schedule: Q01DX009 (ip), vehicle: water, evaluated on day 32): 134 and 194 % of control; T/C (dose: 0.5 mg/kg/injection, schedule: Q01DX009 (ip), vehicle: water, evaluated on day 33): 126 % of control; T/C (dose: 0.5 mg/kg/injection, schedule: Q01DX009 (ip), vehicle: water, evaluated on day 41): 226 % of control; T/C (dose: 0.5 mg/kg/injection, schedule: Q04DX003 (ip), vehicle: water, evaluated on day 30): 157 % of control; T/C (dose: 0.5 mg/kg/injection, schedule: Q04DX003 (ip), vehicle: water, evaluated on day 32): 137 % of control; T/C (dose: 0.5 mg/kg/injection, schedule: Q04DX003 (ip), vehicle: water, evaluated on day 34): 166 % of control; T/C (dose: 0.5 mg/kg/injection, schedule: Q04DX003 (ip), vehicle: water, evaluated on day 38): 190 % of control; T/C (dose: 0.5 mg/kg/injection, schedule: Q04DX003 (ip), vehicle: water, evaluated on day 46): 153 % of control; T/C (dose: 0.67 mg/kg/injection, schedule: Q03HX024 (ip), vehicle: saline, evaluated on day 5): 141, 187, 365, 539 % of control; T/C (dose: 0.67 mg/kg/injection, schedule: Q03HX024 (ip), vehicle: saline, evaluated on day 60): 141, 187, 365, 539 % of control; T/C (dose: 1.0 mg/kg/injection, schedule: Q01DX009 (ip), vehicle: water, evaluated on day 28): 154 % of control; T/C (dose: 1.0 mg/kg/injection, schedule: Q01DX009 (ip), vehicle: water, evaluated on day 30): 201 % of control; T/C (dose: 1.0 mg/kg/injection, schedule: Q01DX009 (ip), vehicle: water, evaluated on day 32): 157 and 215 % of control; T/C (dose: 1.0 mg/kg/injection, schedule: Q01DX009 (ip), vehicle: water, evaluated on day 33): 155 % of control [5 of 6 alive]; T/C (dose: 1.0 mg/kg/injection, schedule: Q01DX009 (ip), vehicle: water, evaluated on day 41): 245 % of control; T/C (dose: 1.0 mg/kg/injection, schedule: Q01DX009 (sc), vehicle: saline): 130 % of control; T/C (dose: 1.0 mg/kg/injection, schedule: Q03HX024 (ip), vehicle: saline, evaluated on day 5): 115, 162, 207 % of control; T/C (dose: 1.0 mg/kg/injection, schedule: Q03HX024 (ip), vehicle: saline, evaluated on day 60): 115, 162, 207, 230 % of control; T/C (dose: 1.0 mg/kg/injection, schedule: Q03HX024 (sc), vehicle: saline): 130 % of control; T/C (dose: 1.0 mg/kg/injection, schedule: Q04DX003 (ip), vehicle: water, evaluated on day 30): 108 [5 of 6 alive], 113 (2×), 116, 124, 132, 133, 166 % of control; T/C (dose: 1.0 mg/kg/injection, schedule: Q04DX003 (ip), vehicle: water, evaluated on day 32): 147 % of control; T/C (dose: 1.0 mg/kg/injection, schedule: Q04DX003 (ip), vehicle: water, evaluated on day 34): 210 % of control; T/C (dose: 1.0 mg/kg/injection, schedule: Q04DX003 (ip), vehicle: water, evaluated on day 38): 213 % of control; T/C (dose: 1.0 mg/kg/injection, schedule: Q04DX003 (ip), vehicle: water, evaluated on day 41): 235 % of control; T/C (dose: 1.0 mg/kg/injection, schedule: Q04DX003 (ip), vehicle: water, evaluated on day 46): 166 % of control; T/C (dose: 1.44 mg/kg/injection, schedule: Q04DX003 (ip), vehicle: water): 151, 165, 177, 181, 190, 212, 213, 245 % of control; T/C (dose: 1.5 mg/kg/injection, schedule: Q01DX009 (sc), vehicle: saline): 135 % of control; survivor count (dose: 1.5 mg/kg/injection, schedule: Q03HX016 (ip), vehicle: saline): 10 of 10; survivor count (dose: 1.56 mg/kg/injection, schedule: Q01DX009 (ip), vehicle: water): 3 of 3; T/C (dose: 1.73 mg/kg/injection, schedule: Q04DX003 (ip), vehicle: saline): 200, 203, 212, 213 (2×), 215, 220, 229, 242 % of control; T/C (dose: 1.8 mg/kg/injection, schedule: Q04DX003 (ip), vehicle: water, evaluated on day 7): 146 and 155 % of control; T/C (dose: 1.8 mg/kg/injection, schedule: Q04DX003 (ip), vehicle: water, evaluated on day 62): 146 and 155 % of control; T/C (dose: 2.0 mg/kg/injection, schedule: Q01DX001 (ip), vehicle: saline, evaluated on day 5): 170, 188, 191 % of control; T/C (dose: 2.0 mg/kg/injection, schedule: Q01DX001 (ip), vehicle: saline, evaluated on day 8): 161 % of control; T/C (dose: 2.0 mg/kg/injection, schedule: Q01DX001 (ip), vehicle: saline, evaluated on day 11): 100 % of control; T/C (dose: 2.0 mg/kg/injection, schedule: Q01DX001 (ip), vehicle: saline, evaluated on day 90): 188 % of control; T/C (dose: 2.0 mg/kg/injection, schedule: Q01DX009 (ip), vehicle: water, evaluated on day 28): 220 % of control; T/C (dose: 2.0 mg/kg/injection, schedule: Q01DX009 (ip), vehicle: water, evaluated on day 30): 117 % of control; T/C (dose: 2.0 mg/kg/injection, schedule: Q01DX009 (ip), vehicle: water, evaluated on day 32): 178 and 284 % of control; T/C (dose: 2.0 mg/kg/injection, schedule: Q01DX009 (ip), vehicle: water, evaluated on day 33): 196 % of control
